Patent publication US5783558A, “Parathormone fragments, their preparation and medicaments containing these” (Boehringer Mannheim GmbH, priority 1992, dated 1998)
At least one peptide structure holds a part that was inferred or is arguable (an end, a ring closure or a residue). Where a SMILES comes first, the peptide text is derived from it.

What was measured:
UMR 106 cells = test: DNA synthesis capacity of PTH(3-X) fragments on UMR 106 cells ([3H]-thymidine incorporation); assay type: cell-based
From the text: DNA synthesis capacity on PTH-(3-X) fragments
An increased DNA synthesis capacity on UMR 106 cells was also observed with fragments, the N-terminus of which was shortened by two amino acids. An action maximum was again present when the chain length lay between 34 and 36 amino acids (cf. Tab. 6). This finding is surprising since it is known that a deletion of the amino acids +1 or +1 and +2 leads to the loss of the cAMP induction, combined with the loss of the calcium-mobilising properties of the PTH. An anabolic (mitogenic) activity of N-terminal shortened PTH fragments has hitherto not been described.

rats = test: Ca retention (Ca balance) in growing rats; assay type: in vivo, rat; set-up: Ca retention (mg per day) average value: dose or concentration left out as unconfirmed; conditions: male CD rats, daily subcutaneous, 10 days
Description: Determination of the action of various PTH fragments on the Ca retention in the case of rats.
The measurement of the Ca balance in growing rats is a suitable model to test in vivo the effectiveness of a systemically administered substance on the bone metabolism. In the case of the Ca balance, the Ca flows in and out of the body are measured and the Ca retention (balance) calculated therefrom. It is thereby taken into account that the bones store about 99% of the body calcium, whereas the plasma calcium level remains constant. The amount of calcium retained in the body from the nutrition can, therefore, be regarded as proportional to the growth in the bone mass.
As experimental animals for the investigations, there served male CD rats which, at the beginning of the experiment, were 10 weeks old and weighed 250-300 g. […] Both fractions were collected quantitatively in collection containers and could be analyzed separately from one another. […]
The Ca intake was calculated via the amount of feed taken up and the experimentally determined Ca content of the feed. For this purpose, from the feed batch of each day, an aliquot was dried to constant weight and the water content determined from the comparison of wet and dry weight. […] The Ca intake was then calculated from the taken-up amount of feed and the measured water and Ca content. […]

patients = conditions: during the treatment; cited from earlier work
[1] = system: membrane fractions from pigs' kidneys; test: cAMP stimulation on porcine kidney membrane; assay type: biochemical, pig; conditions: n=3
Description: (§1) In organ cultures from sterna, as well as on membrane fractions from pigs' kidneys was measured the induction of the cAMP formation by various PTH peptides. […] This is of importance since the catabolic, i.e. calcium-mobilising properties of PTH are, as is known, involved with an increase of the cAMP (Schluter et al. (1989), J. Biol. Chem. 264, 19:11087-11092; Lowik et al., (1988), Calcif Tissue Int. 43:7-18). These findings are plausible and, therefore, support the above-mentioned findings which show an increase of the anabolic properties of the peptide in the case of a chain length between 35 and 36 amino acids.

sterna organ cultures [2] = test: Mitogeneity on sterna organ cultures; assay type: cell-based; conditions: n=4
Description: Mitogeneity on sterna organ cultures
The mitogeneity of the new fragments was tested in organ cultures from sterna and it was ascertained that this activity was more strongly marked than in the case of the known fragments hPTH(1-34) and hPTH(1-38)(cf. Tab. 2).

sterna organ cultures [3] = test: cAMP stimulation on sterna organ cultures; assay type: cell-based; conditions: 100 nm inductor, n=4
Description: as §1

ROS 17/2.8 cells = test: DNA synthesis capacity on ROS 17/2.8 cells ([3H]-thymidine incorporation); assay type: cell-based; conditions: hPTH(1-X) 100 nM, ROS/2.8 cells
Description: DNA synthesis capacity on ROS 17/2.8 cells
The DNA synthesis capacity was measured on ROS 17/2.8 cells. […] Tab. 3: DNA synthesis hPTH(1-X), 100 nM, ROS/2.8 cells

Row | SMILES | DNA synthesis E/C (UMR 106 cells; PTH(3-X) 100 nM) | [^3 H]-thymidine incorporation (cpm) (UMR 106 cells; PTH(3-X) 100 nM) | DNA synthesis E/C (UMR 106 cells; PTH(3-X) 300 nM) | [^3 H]-thymidine incorporation (UMR 106 cells; PTH(3-X) 300 nM) | Ca retention (mg per day) average value (rats; equimolar doses, balance measured during last 3 days) [mg per day] | Ca retention % increase (rats; versus control) [%] | Action on calcium retention and total bone mass in patients (patients) | pMol cAMP/mg protein ± SEM [1] [pMol cAMP/mg protein] | Mitogeneity E/C +/- SEM (sterna organ cultures [2]) | pMol cAMP (sterna organ cultures [3]) [pMol] | DNA synthesis E/C (ROS 17/2.8 cells) | [^3 H]-thymidine incorporation (cpm) (ROS 17/2.8 cells)
1 | CC[C@H](C)[C@H](NC(=O)[C@H](CCC(=O)O)NC(=O)[C@@H](N)CO)C(=O)N[C@@H](CCC(N)=O)C(=O)N[C@@H](CC(C)C)C(=O)N[C@@H](CCSC)C(=O)N[C@@H](Cc1c[nH]cn1)C(=O)N[C@@H](CC(N)=O)C(=O)N[C@@H](CC(C)C)C(=O)NCC(=O)N[C@@H](CCCCN)C(=O)N[C@@H](Cc1c[nH]cn1)C(=O)N[C@@H](CC(C)C)C(=O)N[C@@H](CC(N)=O)C(=O)N[C@@H](CO)C(=O)N[C@@H](CCSC)C(=O)N[C@@H](CCC(=O)O)C(=O)N[C@@H](CCCNC(=N)N)C(=O)N[C@H](C(=O)N[C@@H](CCC(=O)O)C(=O)N[C@@H](Cc1c[nH]c2ccccc12)C(=O)N[C@@H](CC(C)C)C(=O)N[C@@H](CCCNC(=N)N)C(=O)N[C@@H](CCCCN)C(=O)N[C@@H](CCCCN)C(=O)N[C@@H](CC(C)C)C(=O)N[C@@H](CCC(N)=O)C(=O)N[C@@H](CC(=O)O)C(=O)N[C@H](C(=O)N[C@@H](Cc1c[nH]cn1)C(=O)N[C@@H](CC(N)=O)C(=O)N[C@@H](Cc1ccccc1)C(=O)N[C@H](C(=O)N[C@@H](C)C(=O)O)C(C)C)C(C)C)C(C)C [PTH (3-36)] (H-SEIQLMHNLGKHLNSMERVEWLRKKLQDVHNFVA-OH) | 2.4 ± 0.14 | 2,230 ± 172 cpm | 5.1 ± 0.41 | 4,950 ± 401 | – | – | – | – | – | – | – | –
2 | CC[C@H](C)[C@H](NC(=O)[C@H](CCC(=O)O)NC(=O)[C@@H](N)CO)C(=O)N[C@@H](CCC(N)=O)C(=O)N[C@@H](CC(C)C)C(=O)N[C@@H](CCSC)C(=O)N[C@@H](Cc1c[nH]cn1)C(=O)N[C@@H](CC(N)=O)C(=O)N[C@@H](CC(C)C)C(=O)NCC(=O)N[C@@H](CCCCN)C(=O)N[C@@H](Cc1c[nH]cn1)C(=O)N[C@@H](CC(C)C)C(=O)N[C@@H](CC(N)=O)C(=O)N[C@@H](CO)C(=O)N[C@@H](CCSC)C(=O)N[C@@H](CCC(=O)O)C(=O)N[C@@H](CCCNC(=N)N)C(=O)N[C@H](C(=O)N[C@@H](CCC(=O)O)C(=O)N[C@@H](Cc1c[nH]c2ccccc12)C(=O)N[C@@H](CC(C)C)C(=O)N[C@@H](CCCNC(=N)N)C(=O)N[C@@H](CCCCN)C(=O)N[C@@H](CCCCN)C(=O)N[C@@H](CC(C)C)C(=O)N[C@@H](CCC(N)=O)C(=O)N[C@@H](CC(=O)O)C(=O)N[C@H](C(=O)N[C@@H](Cc1c[nH]cn1)C(=O)N[C@@H](CC(N)=O)C(=O)N[C@@H](Cc1ccccc1)C(=O)N[C@H](C(=O)O)C(C)C)C(C)C)C(C)C [PTH (3-35)] (H-SEIQLMHNLGKHLNSMERVEWLRKKLQDVHNFV-OH) | 2.8 ± 0.1 | 2,591 ± 115 cpm | 4.3 ± 0.22 | 4,158 ± 213 | – | – | – | – | – | – | – | –
3 | CC[C@H](C)[C@H](NC(=O)[C@H](CCC(=O)O)NC(=O)[C@H](CO)NC(=O)[C@@H](NC(=O)[C@@H](N)CO)C(C)C)C(=O)N[C@@H](CCC(N)=O)C(=O)N[C@@H](CC(C)C)C(=O)N[C@@H](CCSC)C(=O)N[C@@H](Cc1c[nH]cn1)C(=O)N[C@@H](CC(N)=O)C(=O)N[C@@H](CC(C)C)C(=O)NCC(=O)N[C@@H](CCCCN)C(=O)N[C@@H](Cc1c[nH]cn1)C(=O)N[C@@H](CC(C)C)C(=O)N[C@@H](CC(N)=O)C(=O)N[C@@H](CO)C(=O)N[C@@H](CCSC)C(=O)N[C@@H](CCC(=O)O)C(=O)N[C@@H](CCCNC(=N)N)C(=O)N[C@H](C(=O)N[C@@H](CCC(=O)O)C(=O)N[C@@H](Cc1c[nH]c2ccccc12)C(=O)N[C@@H](CC(C)C)C(=O)N[C@@H](CCCNC(=N)N)C(=O)N[C@@H](CCCCN)C(=O)N[C@@H](CCCCN)C(=O)N[C@@H](CC(C)C)C(=O)N[C@@H](CCC(N)=O)C(=O)N[C@@H](CC(=O)O)C(=O)N[C@H](C(=O)N[C@@H](Cc1c[nH]cn1)C(=O)N[C@@H](CC(N)=O)C(=O)N[C@@H](Cc1ccccc1)C(=O)O)C(C)C)C(C)C [hPTH(1-34), reference compound] | – | – | – | – | 91.8 | 85 | in others an impairment of the calcium retention occurred and the total bone mass diminished during the treatment | 86.6 ± 1.0 | 2.94 +/- 0.38 | 25.8 | 3.2 ± 0.44 | 2,148 ± 289 cpm
